Test results taken from patent US20100203046A1.
Results are given in words; binding and its absence hold for the method and conditions named. Some binding calls cover weakened binding; strength is not graded here.

Protein sequences, listed by entry. Tags and fused reporters are not part of them. Residues count along the entry.
UniProt P06729, residues 25-351: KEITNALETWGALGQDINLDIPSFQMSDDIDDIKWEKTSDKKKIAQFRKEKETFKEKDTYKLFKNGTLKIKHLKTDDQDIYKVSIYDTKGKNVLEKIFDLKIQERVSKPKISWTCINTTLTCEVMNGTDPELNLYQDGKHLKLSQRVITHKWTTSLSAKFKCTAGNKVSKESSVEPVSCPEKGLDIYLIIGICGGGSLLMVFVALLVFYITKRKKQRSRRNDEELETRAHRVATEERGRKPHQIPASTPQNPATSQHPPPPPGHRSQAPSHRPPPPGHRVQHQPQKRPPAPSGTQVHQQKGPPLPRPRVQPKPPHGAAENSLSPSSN

Target: human CD2 (human) (UniProt P06729)
Assay: hybridoma supernatants screened on CD2-positive Jurkat cells

- binding: binds
B1: CB6, human CD2-specific murine monoclonal antibody (IgG1, kappa) (antibody, V domains shown)
VH: QVQLQQPGAELVRPGASVKLSCKASGYTFTSYWMNWVKQRPEQGLEWIGRIDPHDSETHYRQKFKDMAILTVDKSSRTAYMQLSSLTSEDSAVYYCARGTMLDGMDYWGQGTSVTVSSAS
VL: QIVLTQSPAIMSASPGEKVTMTCRASSSVSHMHWYQQKSGTSPKRWIYDTSKLASGVPARFSGSGSGTSYSLTISSVEAEDAATYYCQQWSSNPLTFGAGTKLELK
